# Assay results as given in publication PMC7850899, “Nutrient transceptors physically interact with the yeast S6/protein kinase B homolog, Sch9, a TOR kinase target” (Biochemical Journal, 2021).
# These are yes or no findings as the source states them, for the method shown. In cells and extracts the contact can be indirect. Some results given as binding are weak or reduced against the parent protein; the word gives no strength. Tags and fused reporters may be left off the sequences shown.
# B1: Sch9 tagged with the C-terminal half of Citrine (SCH9-C-Citrine) (enzyme, UniProt P11792 1-824)
# chain: MMNFFTSKSSNQDTGFSSQHQHPNGQNNGNNNSSTAGNDNGYPCKLVSSGPCASSNNGALFTNFTLQTATPTTAISQDLYAMGTTGITSENALFQMKSMNNGISSVNNNNSNTPTIITTSQEETNAGNVHGDTGGNSLQNSEDDNFSSSSTTKCLLSSTSSLSINQREAAAAAYGPDTDIPRGKLEVTIIEARDLVTRSKDSQPYVVCTFESSEFISNGPESLGAINNNNNNNNNNQHNQNQHINNNNENTNPDAASQHHNNNSGWNGSQLPSIKEHLKKKPLYTHRSSSQLDQLNSCSSVTDPSKRSSNSSSGSSNGPKNDSSHPIWHHKTTFDVLGSHSELDISVYDAAHDHMFLGQVRLYPMIHNLAHASQHQWHSLKPRVIDEVVSGDILIKWTYKQTKKRHYGPQDFEVLRLLGKGTFGQVYQVKKKDTQRIYAMKVLSKKVIVKKNEIAHTIGERNILVTTASKSSPFIVGLKFSFQTPTDLYLVTDYMSGGELFWHLQKEGRFSEDRAKFYIAELVLALEHLHDNDIVYRDLKPENILLDANGNIALCDFGLSKADLKDRTNTFCGTTEYLAPELLLDETGYTKMVDFWSLGVLIFEMCCGWSPFFAENNQKMYQKIAFGKVKFPRDVLSQEGRSFVKGLLNRNPKHRLGAIDDGRELRAHPFFADIDWEALKQKKIPPPFKPHLVSETDTSNFDPEFTTASTSYMNKHQPMMTATPLSPAMQAKFAGFTFVDESAIDEHVNNNRKFLQNSYFMEPGSFIPGNPNLPPDEDVIDDDGDEDINDGFNQEKNMNNSHSQMDFDGDQHMDDEFVSGRFEI
# Columns and labels:
# Assay in all cases: split reporter; BiFC with split Citrine on genomically tagged proteins in living S. cerevisiae, confocal microscopy; cells starved for the transceptor's substrate (nitrogen 24 h, phosphate 72 h, sulfate 48 h); Gnp1 and Mup3 strains also in exponential growth
# [1] = target: T1, Pho84 tagged with the N-terminal half of Citrine (PHO84-N-Citrine) (S. cerevisiae (endogenous gene, tagged)) (UniProt P25297)
# T1 sequence: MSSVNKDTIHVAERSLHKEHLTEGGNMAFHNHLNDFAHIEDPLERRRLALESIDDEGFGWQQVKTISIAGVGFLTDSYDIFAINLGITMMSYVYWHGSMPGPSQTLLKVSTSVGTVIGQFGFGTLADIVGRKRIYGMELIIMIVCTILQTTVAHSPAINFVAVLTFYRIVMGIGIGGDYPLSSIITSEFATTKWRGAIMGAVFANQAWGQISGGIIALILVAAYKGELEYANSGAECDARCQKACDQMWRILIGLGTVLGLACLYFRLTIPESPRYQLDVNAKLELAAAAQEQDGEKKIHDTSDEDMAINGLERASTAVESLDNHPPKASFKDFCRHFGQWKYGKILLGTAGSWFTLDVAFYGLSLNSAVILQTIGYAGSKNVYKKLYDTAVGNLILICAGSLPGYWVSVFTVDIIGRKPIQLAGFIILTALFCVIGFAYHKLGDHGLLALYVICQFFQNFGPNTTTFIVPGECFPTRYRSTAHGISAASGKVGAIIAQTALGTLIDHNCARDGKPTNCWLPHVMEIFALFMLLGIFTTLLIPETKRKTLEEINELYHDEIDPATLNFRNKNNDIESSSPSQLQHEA
# [2] = target: T2, Mup3 tagged with the N-terminal half of Citrine (MUP3-N-Citrine) (S. cerevisiae (endogenous gene, tagged)) (UniProt P38734)
# T2 sequence: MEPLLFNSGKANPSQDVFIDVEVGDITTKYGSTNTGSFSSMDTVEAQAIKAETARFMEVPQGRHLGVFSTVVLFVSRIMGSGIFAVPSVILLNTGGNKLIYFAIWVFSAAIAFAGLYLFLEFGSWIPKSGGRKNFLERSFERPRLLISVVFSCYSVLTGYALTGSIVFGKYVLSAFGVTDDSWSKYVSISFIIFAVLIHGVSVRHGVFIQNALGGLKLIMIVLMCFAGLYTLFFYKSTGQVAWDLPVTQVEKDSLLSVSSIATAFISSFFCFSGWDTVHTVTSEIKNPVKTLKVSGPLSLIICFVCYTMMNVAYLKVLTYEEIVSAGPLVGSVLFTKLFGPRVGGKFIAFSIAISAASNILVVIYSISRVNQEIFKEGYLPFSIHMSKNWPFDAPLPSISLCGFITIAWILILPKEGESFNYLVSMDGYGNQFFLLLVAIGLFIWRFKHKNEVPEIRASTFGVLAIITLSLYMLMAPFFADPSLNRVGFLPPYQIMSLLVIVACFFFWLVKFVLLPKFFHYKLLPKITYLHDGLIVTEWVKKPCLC
# [3] = target: T3, Sul1 tagged with the N-terminal half of Citrine (SUL1-N-Citrine) (S. cerevisiae (endogenous gene, tagged)) (UniProt P38359)
# T3 sequence: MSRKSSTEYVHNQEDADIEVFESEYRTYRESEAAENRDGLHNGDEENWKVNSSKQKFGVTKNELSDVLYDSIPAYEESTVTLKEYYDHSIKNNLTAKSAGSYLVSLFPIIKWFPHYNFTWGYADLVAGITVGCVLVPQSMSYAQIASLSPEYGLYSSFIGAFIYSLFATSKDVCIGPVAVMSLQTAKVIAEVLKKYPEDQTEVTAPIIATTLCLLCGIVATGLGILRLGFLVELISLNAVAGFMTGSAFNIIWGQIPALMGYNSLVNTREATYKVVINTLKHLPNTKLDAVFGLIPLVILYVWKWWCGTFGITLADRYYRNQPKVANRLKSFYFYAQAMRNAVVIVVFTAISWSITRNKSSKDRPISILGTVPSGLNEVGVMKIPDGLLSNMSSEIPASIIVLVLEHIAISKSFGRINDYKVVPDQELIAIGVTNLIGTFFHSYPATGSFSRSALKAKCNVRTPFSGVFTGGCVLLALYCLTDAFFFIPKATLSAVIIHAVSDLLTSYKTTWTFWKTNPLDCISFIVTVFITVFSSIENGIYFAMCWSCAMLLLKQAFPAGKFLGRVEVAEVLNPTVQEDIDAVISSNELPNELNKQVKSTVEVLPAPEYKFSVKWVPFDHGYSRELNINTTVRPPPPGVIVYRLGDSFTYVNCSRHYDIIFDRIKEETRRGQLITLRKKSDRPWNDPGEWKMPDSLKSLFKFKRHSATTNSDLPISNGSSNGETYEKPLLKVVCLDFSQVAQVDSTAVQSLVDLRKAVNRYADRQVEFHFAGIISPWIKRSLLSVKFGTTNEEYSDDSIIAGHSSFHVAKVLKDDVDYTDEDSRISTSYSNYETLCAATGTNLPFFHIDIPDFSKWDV
binder,measurement,setting,value
B1,binding,[1],binds
same,binding,[2],no binding
same,binding,[3],binds
